This is one part of the list.
Each sequence was assayed against T1, OsSMF1 (Oryza sativa, UniProt Q6ZLB0 1-436) (assay: protein-binding microarray (RPBM); PBS, 2% BSA, 51.3 ng/ul salmon testes DNA, 50 uM zinc acetate, 200 nM TF, 25 C, 1 h; high values mean tight binding). Conditions: protein: recombinant; tags: N-terminal polyhistidine and DsRed monomer fusion (pET32a); chain copies: 2; label: CyDye5-dUTP incorporated in the synthesized complementary strand; 3' TTTTT single-stranded linker to array surface; dsDNA, one strand shown.
T1 sequence: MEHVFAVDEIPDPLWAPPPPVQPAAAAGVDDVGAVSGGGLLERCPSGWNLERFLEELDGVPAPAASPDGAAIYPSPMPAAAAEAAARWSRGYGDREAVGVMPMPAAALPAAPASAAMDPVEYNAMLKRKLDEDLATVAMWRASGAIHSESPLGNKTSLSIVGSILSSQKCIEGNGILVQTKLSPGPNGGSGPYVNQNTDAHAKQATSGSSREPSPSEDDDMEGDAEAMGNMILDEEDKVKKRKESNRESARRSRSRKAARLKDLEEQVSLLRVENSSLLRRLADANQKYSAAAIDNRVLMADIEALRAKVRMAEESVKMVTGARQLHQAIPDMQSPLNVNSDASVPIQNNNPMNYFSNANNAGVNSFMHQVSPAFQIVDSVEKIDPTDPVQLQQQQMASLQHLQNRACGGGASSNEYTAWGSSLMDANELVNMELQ
Summary of the method: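 In PBS with 2% BSA, salmon testes DNA and 50 µM zinc acetate, 200 nM protein was incubated on a custom Agilent array at 25 °C for 1 h and then washed off. The array had been made double-stranded by primer extension with Cy5-dUTP and blocked with 2% BSA. The proteins were transcription factors fused N-terminally to polyhistidine and DsRed, expressed in E. coli BL21-CodonPlus and purified on Ni–NTA. The binding signal is per-feature fluorescence intensity (arbitrary units) from an Axon 4000B scanner.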

| Sequence | binding signal |
| --- | --- |
| ATGAGGGGTCGGGGTTGGGCGGCGTGGGCACGGGCTCGAGCGGAGTCACCTAGTGCAG | 4600 fluorescence intensity (a.u.) |
| AACGGAGCGTGACGCAACGCAAGTTACGCAACACGGTCGCCGGAGTCACCTAGTGCAG | 4000 fluorescence intensity (a.u.) |
| ACGGAATGAACACTAATTTACTTAATACATAGAACCACGGCGGAGTCACCTAGTGCAG | 23300 fluorescence intensity (a.u.) |
| TGTTGTCTGCCTTAGTGCCTTGTGCATTTGTTCTTAAACCCGGAGTCACCTAGTGCAG | 3240 fluorescence intensity (a.u.) |
| GTGTTTATATAAGTGTTTGCATATGTACTATGTTTTAATACGGAGTCACCTAGTGCAG | 3730 fluorescence intensity (a.u.) |
| ATACGCCTACTCCGTCTAAACTGAGACAGAATCACGGGCCCGGAGTCACCTAGTGCAG | 19000 fluorescence intensity (a.u.) |
| CTCCCTTCCCTTCCCTTCCTCTCGCCGAACCAACGCGGAACGGAGTCACCTAGTGCAG | 3360 fluorescence intensity (a.u.) |
| TGGGAGGGAGGGAGTATTCCGTTTGAGTGCAACAACGCTACGGAGTCACCTAGTGCAG | 3270 fluorescence intensity (a.u.) |
| CCCTCATGTCAGGTGAGGTGTACAGTAGTCGGCGTCTCATCGGAGTCACCTAGTGCAG | 3590 fluorescence intensity (a.u.) |
| ATATTACCATGAAAAGATTACACCTGGCTTGACCATAACCCGGAGTCACCTAGTGCAG | 3910 fluorescence intensity (a.u.) |
| GCGGGCGGCGGTCGAATGGGAAGGCGCCACGTGGCACTAACGGAGTCACCTAGTGCAG | 24200 fluorescence intensity (a.u.) |
| TTAGCCACACCATTGCTGATTTGCACACACCTCAACATAGCGGAGTCACCTAGTGCAG | 4040 fluorescence intensity (a.u.) |
| ACACACGCGTTATTTGGGGTTCCGGCCCAATACGTGGCCCCGGAGTCACCTAGTGCAG | 5850 fluorescence intensity (a.u.) |
| TCTACGTGGCGGCTGAGTCAGCATGGGGCCCACGTGGGCCCGGAGTCACCTAGTGCAG | 14600 fluorescence intensity (a.u.) |
| GCGTGCGTCCATATTCTATATACTTAGTATATAGTTATTACGGAGTCACCTAGTGCAG | 26900 fluorescence intensity (a.u.) |
| GCTCGCCGCGTGCTCTCGTCATCCATCCGACCCACGCCCGCGGAGTCACCTAGTGCAG | 4780 fluorescence intensity (a.u.) |
| GATTAATTGTTGCATTTAAAATGTGGGTCATGACCGCTATCGGAGTCACCTAGTGCAG | 3650 fluorescence intensity (a.u.) |
| GGAATTTCTCTTTCTACACAACTGTTTGCGTCAACATATACGGAGTCACCTAGTGCAG | 3200 fluorescence intensity (a.u.) |
| AATAGGTTGCAAGGTATCTCCTATGACGTATTCTCGTATGCGGAGTCACCTAGTGCAG | 5210 fluorescence intensity (a.u.) |
| CCAATACCGATATTGCGCTTACGTCACACTACCGTTACCACGGAGTCACCTAGTGCAG | 8320 fluorescence intensity (a.u.) |
| CAAACTAGCAACATCCCAAATTTTACCAGGTGTATATATACGGAGTCACCTAGTGCAG | 4250 fluorescence intensity (a.u.) |

| Sequence | binding signal |
| --- | --- |
| TTTTAACGCATTGACATGACAGTGTAGCACCAACAACTTCCGGAGTCACCTAGTGCAG | 3370 fluorescence intensity (a.u.) |
| GCGGCAGGGGCGGATCGAGGCACGTTGGCGCCGGATGGAGCGGAGTCACCTAGTGCAG | 3240 fluorescence intensity (a.u.) |
| CGCGCGCGCCCTACGTGGGCCATGTGGACCGGGAGTGCGCCGGAGTCACCTAGTGCAG | 4710 fluorescence intensity (a.u.) |
| TCCTCTATGGCGCCGCTTACGTCCCGCCGCCCCGCTCCTGCGGAGTCACCTAGTGCAG | 3150 fluorescence intensity (a.u.) |
| GATGGGATCGGAGGAATGGAACACACAATATATATGTGTGCGGAGTCACCTAGTGCAG | 4040 fluorescence intensity (a.u.) |
| CGCACACGCCACGTAAATCGTACTGCCTAAACCAGGCCTACGGAGTCACCTAGTGCAG | 4000 fluorescence intensity (a.u.) |
| CCGCGCCGCCGCCGCCGCCGCCACCGCCGCATCGCCGCTGCGGAGTCACCTAGTGCAG | 4080 fluorescence intensity (a.u.) |
| TGCCGTGCTCGCCGCTGCTGCTTCCGTAGCGTCACAAACTCGGAGTCACCTAGTGCAG | 33800 fluorescence intensity (a.u.) |
| AGACCCCTTCTGTCACATCAGCAGATCAGCTCAAGTGCTCCGGAGTCACCTAGTGCAG | 3350 fluorescence intensity (a.u.) |
| GGCAACATCCAACGGGAAGTGCGCGTCACGTCCCACCGGCCGGAGTCACCTAGTGCAG | 6880 fluorescence intensity (a.u.) |
| TAACATCTTCCTCACGCACCGATTGTCCTACACCACTCAGCGGAGTCACCTAGTGCAG | 23300 fluorescence intensity (a.u.) |
| TTTTCGTGGACTCGTGGCCAACTCCAATACGTTTCCAACCCGGAGTCACCTAGTGCAG | 3150 fluorescence intensity (a.u.) |
| GCTGAAGCATGCCTGACATTTTCATTGGTCTGTTTGGTTCCGGAGTCACCTAGTGCAG | 36600 fluorescence intensity (a.u.) |
| GGCTGGTTTGGTTTGTGGCTAAAATTGGCCTTACCAATTTCGGAGTCACCTAGTGCAG | 12600 fluorescence intensity (a.u.) |
| GCCTACAAATCGCGGTGATGGTCGCGTCAGCGTCGCAAGCCGGAGTCACCTAGTGCAG | 3270 fluorescence intensity (a.u.) |
| ATTTGCTGCTTACACGGCATTTTGACTATGCGTGTAGTACCGGAGTCACCTAGTGCAG | 3780 fluorescence intensity (a.u.) |
| TCAAGAGATTCGTTACATGGCTACAAGGTCACAAATTAGTCGGAGTCACCTAGTGCAG | 7240 fluorescence intensity (a.u.) |
| CGCCCCAAAGATCACACGAACGCGTGACGCCGCCCGTCACCGGAGTCACCTAGTGCAG | 3880 fluorescence intensity (a.u.) |
| AGATAGTGGGATGCATATGCAGGAAACAGCCAGCTCATCACGGAGTCACCTAGTGCAG | 6560 fluorescence intensity (a.u.) |
| AAAATTGATATGTAATTATGACACACTTACGTCGGATATGCGGAGTCACCTAGTGCAG | 6000 fluorescence intensity (a.u.) |
| CAAATGCTTATGAGCACACCTGCGAATGTGTCATCTAGCGCGGAGTCACCTAGTGCAG | 5060 fluorescence intensity (a.u.) |

Not a retest: an excerpt of the list.

| Sequence | binding signal |
| --- | --- |
| CCGCGCCGCCGCCGCCGCCGCCACCGCCGCATCGCCGCTGCGGAGTCACCTAGTGCAG | 4080 fluorescence intensity (a.u.) |
| TGCCGTGCTCGCCGCTGCTGCTTCCGTAGCGTCACAAACTCGGAGTCACCTAGTGCAG | 33800 fluorescence intensity (a.u.) |
| AGACCCCTTCTGTCACATCAGCAGATCAGCTCAAGTGCTCCGGAGTCACCTAGTGCAG | 3350 fluorescence intensity (a.u.) |
| GGCAACATCCAACGGGAAGTGCGCGTCACGTCCCACCGGCCGGAGTCACCTAGTGCAG | 6880 fluorescence intensity (a.u.) |
| TAACATCTTCCTCACGCACCGATTGTCCTACACCACTCAGCGGAGTCACCTAGTGCAG | 23300 fluorescence intensity (a.u.) |
| TTTTCGTGGACTCGTGGCCAACTCCAATACGTTTCCAACCCGGAGTCACCTAGTGCAG | 3150 fluorescence intensity (a.u.) |
| GCTGAAGCATGCCTGACATTTTCATTGGTCTGTTTGGTTCCGGAGTCACCTAGTGCAG | 36600 fluorescence intensity (a.u.) |
| GGCTGGTTTGGTTTGTGGCTAAAATTGGCCTTACCAATTTCGGAGTCACCTAGTGCAG | 12600 fluorescence intensity (a.u.) |
| GCCTACAAATCGCGGTGATGGTCGCGTCAGCGTCGCAAGCCGGAGTCACCTAGTGCAG | 3270 fluorescence intensity (a.u.) |
| ATTTGCTGCTTACACGGCATTTTGACTATGCGTGTAGTACCGGAGTCACCTAGTGCAG | 3780 fluorescence intensity (a.u.) |
| TCAAGAGATTCGTTACATGGCTACAAGGTCACAAATTAGTCGGAGTCACCTAGTGCAG | 7240 fluorescence intensity (a.u.) |
| CGCCCCAAAGATCACACGAACGCGTGACGCCGCCCGTCACCGGAGTCACCTAGTGCAG | 3880 fluorescence intensity (a.u.) |
